PubChem BioAssay AID1671195 | Yale University – 2021
In all, the deposit lists about 22,000 reagents; shown is a random part of them. In the full data, about 1,510 (6.9%) got an active call. 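Active includes knockdowns raising or lowering LDL uptake; positive z-scores mean more uptake, negative mean less.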 No sequences are given here.

Purpose: 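Genes whose knockdown alters LDL uptake in liver cancer cells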 (primary screen)
System: human Huh7 hepatoma cells
Reagent: siRNA pool against human genes, 18 nM
Duration: about 2 to 2.5 days of knockdown, then 8 h LDL uptake
Conditions: DiI-labelled LDL at 30 µg/ml for 8 h, in lipoprotein-deficient serum medium
Measured: 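Fluorescent LDL signal imaged in cells, scaled to the plate median, robust z-score for each replicate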
Reading the numbers: robust z-score: higher = more LDL uptake after knockdown
Active means: 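Active when two or more replicates show a robust z-score above 2 or below -2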

The opening 6 entries as a preview:
Gene,"robust z-score, replicate 1","robust z-score, replicate 2","robust z-score, replicate 3",activity call
LOC388565 (retired record),-0.827,-0.629,-0.889,inactive
CYP24A1,-0.359,-0.326,0.227,inactive
ZSWIM3,-0.0488,0.672,0.701,inactive
GYPA,0.341,0.659,0.945,inactive
ZNF528,-0.223,-0.393,-0.573,inactive
BGN,-1.23,-1.11,0.827,inactive

Results, from the start:
Gene,"robust z-score, replicate 1","robust z-score, replicate 2","robust z-score, replicate 3",activity call
LOC388565 (retired record),-0.827,-0.629,-0.889,inactive
CYP24A1,-0.359,-0.326,0.227,inactive
ZSWIM3,-0.0488,0.672,0.701,inactive
GYPA,0.341,0.659,0.945,inactive
ZNF528,-0.223,-0.393,-0.573,inactive
BGN,-1.23,-1.11,0.827,inactive
NBR2,-0.325,-1.68,-0.912,inactive
EID2,-1.36,-1.24,-1.2,inactive
TEAD2,1.33,1.17,1.4,inactive
E2F4,1.58,1.47,-0.783,inactive
LRAT,1.57,2.79,2.15,active
EFNB2,2.43,2.91,1.73,active
STT3A,-0.179,1.65,1.35,inactive
RPP38,0.587,0.529,0.862,inactive
IL38,-0.507,-0.538,-0.121,inactive
LINC00174,-0.424,-0.436,-0.444,inactive
IL13,0.537,1.08,2.79,inactive
ASTILCS,-0.754,-0.0319,-0.418,inactive
LGALS8,-0.543,0.38,0.226,inactive
CTDSP2,1.21,0.439,1.23,inactive
OSCAR,1.11,1.19,0.734,inactive
MEDAG,1.71,1.52,1.64,inactive
HOXA5,-0.969,-0.111,-0.0672,inactive
ARMS2,0.159,0.331,1.28,inactive
LOC388915 (retired record),-0.29,-0.287,-0.49,inactive
BCORL1,3.79,3.08,3.02,active
ICE2,-1.96,-1.64,-1.71,inactive
C3,2.86,0.774,2.31,active
BTG4,0.971,-0.32,-0.0403,inactive
PAPPA2,-0.811,-0.733,-0.838,inactive
APOA4,-0.0695,0.305,0.536,inactive
PCDHGB7,-0.637,-1.03,-0.383,inactive
RPL7L1,0.407,0.333,0.616,inactive
RCN3,-0.974,-0.785,-0.704,inactive
LENG8,1.75,-0.852,0.413,inactive
SNRPG,3.09,3.77,2.53,active
GK2,-2.01,-1.77,-1.79,inactive
PTPMT1,-0.0363,-0.0212,0.342,inactive
CX3CR1,-2.08,-0.0233,0.905,inactive
SFTPA2B (retired record),0.586,-0.742,0.475,inactive
MAGEL2,0.643,0.659,-1.8,inactive
HNRNPA0,-0.587,-0.672,-0.116,inactive
MORN5,0.855,0.589,0.697,inactive
CLK1,1.52,0.69,1.32,inactive
PANK4,-1.21,-0.602,-0.78,inactive
CTPS1,-1.13,-0.987,-0.577,inactive
ZNF180,-1.07,-0.392,-1.15,inactive
PRKG1,-0.27,0.0316,0.779,inactive
DOCK5,0.653,1.24,2.19,inactive
SYN2,-0.476,-0.358,-0.378,inactive
IL20,-0.46,0.715,-0.761,inactive
B4GAT1,-2.1,-0.0123,-1.48,inactive
TMEM144,-1.11,1.61,0.607,inactive
HOMER3,-0.57,1.36,-0.741,inactive
CERK,-0.582,-0.19,-0.208,inactive
LOC652276,-0.494,-0.952,-0.716,inactive
PITPNM2,1.41,2.36,2.66,active
MDGA2,-0.0684,-0.522,0.851,inactive
AKR1B15,1.58,2.2,1.29,inactive
TIMM17BP1,0.256,0.503,0.715,inactive
LINC01118,-0.538,-0.584,-0.455,inactive
LTO1,2.3,2.33,1.97,active
NWD2,0.833,1.37,1.32,inactive
CRH,2.35,2.35,3.87,active
KATNA1,1.15,0.351,0.953,inactive
BAIAP2,1.59,1.74,0.838,inactive
PCMTD1,-0.00851,-0.481,-0.209,inactive
GFRAL,-1.71,-1.44,-1.69,inactive
TMEM267,-0.779,-1.04,-0.7,inactive
SSR4,3.11,3.48,4.75,active
LONP2,1.46,-2.33,2.03,inactive
INTS3,0.158,0.306,-0.0307,inactive
NUFIP1,1.07,1.06,-0.149,inactive
LOC440492 (retired record),-0.404,-0.681,-0.546,inactive
RP1L1,-0.0834,-0.582,-0.564,inactive
TBC1D29P,-1.18,-0.699,0.309,inactive
MMD2,0.97,2.34,1.53,inactive
RBMS3,-0.297,0.254,-0.327,inactive
DCLK2,2.44,1.4,2.01,active
TDP1,-1.94,-1.36,-1.59,inactive
FAM234A,-0.338,-0.962,0.109,inactive
CDK3,-0.384,-1.04,-0.68,inactive
PRSS37,2.73,1.47,2.48,active
KRT79,-0.000615,0.565,0.306,inactive
ARMC12,1.06,0.9,1.12,inactive
LINC01312,0.72,-0.112,0.693,inactive
CFAP92,0.807,2.28,0.919,inactive
